Results from patent US20230126987A1, “METHODS FOR TREATING CYTOKINE STORM SYNDROME AND RELATED DISEASES” (Generos Biopharma Ltd., priority 2020, published 2023).
At least one structure is not confirmed: it was looked up by name or label, or the drawing left a doubt.

Legend:
H5N1 virus = conditions: co-administration with zanamivir, compared to antiviral treatment alone; cited from earlier work
[1] = system: LPS-induced pro-inflammatory cytokines; assay: LPS-induced sepsis model in mice, plasma cytokines by ELISA; type: in vivo, Balb/c mice; conditions: i.p. 1 hour before LPS 10 mg/kg i.p., DEX 3 mg/kg, Nib1 5 mg/kg, 4 hours after LPS
Procedure: FIGS. 2A and 2B show the cytokine levels of TNFα and IL-6, respectively, in serum as measured by an ELISA kit. […] Whole blood was collected at 4 hours after LPS injection, and the plasma was extracted for ELISA measurement. *indicates P<0.05, **indicates P<0.01, *** indicates P<0.001, and **** indicates P<0.0001.
After 1 hour, all the animals were exposed to lethal dose of LPS (10 mg/kg, 2 mg/mL, i.p., Solarbio L8880). All animals were sacrificed 4 hours after LPS injection for tissue and whole blood collection.
FIGS. 2A and 2B show the cytokine levels of TNFα and IL-6, respectively, in the serum as measured by an ELISA kit. […] Whole blood was collected at 4 hours after LPS injection and plasma was extracted for ELISA measurement. *indicates P<0.05, **indicates P<0.01, *** indicates P<0.001, and **** indicates P<0.0001.

[2] = system: LPS-induced pro-inflammatory cytokines; assay: Repetitive low dose LPS challenge sepsis-like persistent inflammation model in mice, whole blood cell cytokine RT-qPCR; type: in vivo, Balb/c mice; conditions: LPS 10 µg/mouse i.p. daily for 4 days, oral DEX 3 mg/kg or Nib1 0.6 mg/kg daily, whole blood cells RT-qPCR
Source text: FIGS. 4A, 4B, and 4C show the cytokine levels of IL-1β, IL-6, and TNFα, respectively, in the whole blood cells as measured by RT-qPCR. […] At the end of experiment, whole blood cells were collected and the total RNA was extracted for RT-qPCR measurement of the cytokine mRNA. *indicates P<0.05, **indicates P<0.01, *** indicates P<0.001.
At the end of the experiment, all animals were sacrificed, and whole blood cells were purified by centrifugation and subjected to standard RT-qPCR detection of IL-6 and TNFα mRNA levels according to the manufacturer’s instructions.

[3] = system: pandemic influenza (H1N1) 2009; conditions: patients with pandemic influenza (H1N1) 2009; cited from earlier work
[4] = system: RSV-infected lung epithelial cells; conditions: cited from earlier work

Q: Which cellular infiltrate (H5N1 virus) does the source give for `Cc1ccc(-c2cc(C(F)(F)F)nn2-c2ccc(S(N)(=O)=O)cc2)cc1` [celecoxib] here?
A: diminished cellular infiltrate

Q: What about the survival (H5N1 virus) of the same compound?
A: improved survival

Q: With `CC(=O)OCC(=O)[C@@]1(O)[C@H](C)C[C@H]2[C@@H]3CCC4=CC(=O)C=C[C@]4(C)[C@@]3(F)[C@@H](O)C[C@@]21C` [DEX, dexamethasone acetate] as the compound, how does the “plasma level of TNFα” value ([1]; vs DMSO (DEX p<0.0001, Nib1 p<0.01)) read?
A: almost abolished

Q: And the “plasma level of IL-6” value ([1]; vs DMSO (DEX p<0.01, Nib1 p<0.001))?
A: almost abolished

Q: What about the TNFα level ([2]; TNFα returned to basal level) of the same compound?
A: no difference was detected

Q: What about the IL-1β level ([2]; vs DMSO (DEX p<0.05, Nib1 p<0.001)) of the same compound?
A: almost abolished

Q: And the IL-6 level ([2]; vs DMSO (both p<0.05))?
A: almost abolished

Q: Which “risk of developing severe disease” value [3] does the source give for `CCC(C)(C)C(=O)O[C@H]1C[C@@H](C)C=C2C=C[C@H](C)[C@H](CC[C@@H]3C[C@@H](O)CC(=O)O3)[C@H]21` [Simvastatin] here?
A: Statins were not found to reduce the risk of developing severe disease in patients with pandemic influenza (H1N1) 2009

Q: For `CC1(COc2ccc(CC3SC(=O)NC3=O)cc2)CCCCC1` (stereo not shown) [ciglitazone], which “production of IL-1α, IL-6, and TNF cytokines, CXCL8 and CCL5 chemokines, and ICAM-1” value [4] is on record?
A: decreased production

Q: With `Cc1c(C)c2c(c(C)c1O)CCC(C)(COc1ccc(CC3SC(=O)NC3=O)cc1)O2` (stereo not shown) [troglitazone] as the compound, how does the “production of IL-1α, IL-6, and TNF cytokines, CXCL8 and CCL5 chemokines, and ICAM-1” value [4] read?
A: decreased production
